Structures are written as SMILES. Values after ≈ are worked out from the molar mass of the structure shown.

Holding throughout (assay): MTT method, inhibition of cell growth in vitro
Common to all, as to assay type: cell-based

For experiment [1], the system named is SKOV3 (human ovarian cancer cells). As to conditions: SK-OV-3, 48 h. An excerpt: (§1) A. Experimental Materials and the Preparation Thereof: • (1) Cell lines: PANC-1 (human pancreatic cancer cells), SKOV3 (human ovarian cancer cells), MCF-7 (human breast cancer cells), SMMC-7721 (human liver cancer cells), A549 (human lung cancer cells), BGC-823 (human gastric cancer cells), COLO205 (human colonic cancer cells), storaged and passaged maintainably in Research and Evaluation Center for Pharmacology, Shanghai Institute of Pharmaceutical Industry; • (2) DMEM complete medium supplied with 10% newborn calf serum (GIBCO BRL), 1% of penicillin (100 U/mL)+streptomycin (100 μg/mL); • (3) 0.25% trypsin solution, purchased from Invitrogen Corp. and storaged at −20; • (4) Phosphate buffer (PBS): NaCl 8 g, KCl 0.2 g, Na2HPO4 1.15 g and KH2PO4 0.2 g, dissolved in 1 L double-distilled water and autoclaved at 121 for 20 min, then storaged at 4; • (5) MTT (AMRESCO) solution: 5 mg/ml in PBS; • (6) Formazan crystal dissolving solution: SDS 10 g, isobutanol 5 ml and concentrated hydrochloric acid 0.1 ml, dissolved in 100 ml of deionized double distilled water.
(§2) The inhibition effects of the compound of formula (I) on the above-mentioned cell lines were detected by using MTT method. The specific procedures were as follows:
(§3) (1) Cell culture: (a) Storaged cells were taken out from the liquid nitrogen, thawed quickly in a 37 water bath, then aseptically transferred into 6 ml of cellular medium in a 10 ml centrifugal tube, centrifuged at 1000 rpm for 5 min. […]
(§4) (4) Cells in a logarithmic growth stage were trypsinized and washed, then re-suspended in the medium containing 10% calf serum. The number of living cells was counted in Trypan blue dye exclusion method and cell suspensions were adjusted into a density of 2×10^5 cell/ml. […]

The test system of experiment [2] is MCF-7 (human breast cancer cells). The following applies: MCF7, MCF-7, MTT, 48 h.
Excerpt: as §1, §2, §3, §4

The subject of experiment [3] is A549 (human lung cancer cells). As to conditions: 48 h.
Excerpt: as §1, §2, §3, §4

Usually IC50 stands for the midpoint of a concentration-inhibition curve. Higher therefore signals weaker potency. `CC(=O)O[C@H]1C(=O)[C@@]2(C)[C@H]([C@H](OC(=O)c3ccccc3)[C@]3(O)C[C@H](OC(=O)[C@H](O)[C@@H](NC(=O)c4ccccc4)c4ccccc4)C(C)=C1C3(C)C)[C@]1(OC(C)=O)CO[C@@H]1C[C@@H]2O` [Taxol, reference compound]: the IC50 in experiment [1] came to 0.38 µg/mL (≈ 0.445 µM); in experiment [2] it was 0.34 µg/mL (≈ 0.398 µM); in experiment [3] it was 0.49 µg/mL (≈ 0.574 µM).

The record behind these values is US20160015669A1, “COMPOUND, 1, 3-DIOLEIN-2-LINOLEIN, AND PHARMACEUTICAL PREPARATION AND USE THEREOF” (ZHEJIANG KANGLAITE GROUP CO., LTD., priority 2014, published 2016).
